From the supplement of paper PMC12578635
The list shows a part of the results. No stated cut-off is given here; in the data, active = 150% or more and inactive = the rest. Repeats are few or missing, and single values can be far off.

System: Staphylococcus aureus JE2-lux inside RAW 264.7 macrophages
Assay: intracellular bacterial bioluminescence relative to DMSO vehicle; higher = higher intracellular bacterial metabolic activity
Details: 10 µM; treatment time 4 h; gentamicin 50 µg/ml

Intracellular bacterial bioluminescence, inactive:
COC(=O)c1c(NC(=O)/C(C#N)=C/c2cccs2)sc(C)c1C 97.9%
C=CCn1c(SCCC(=O)Nc2ccc3c(c2)OCO3)nc2sc3c(c2c1=O)CCCC3 33.8%
COc1ccc2nc(N/N=C3/C(=O)N(c4ccccc4)N=C3C)sc2c1 79.8%
Cc1sc2ncnc(Sc3nnnn3-c3ccccc3)c2c1C 103%
NC(=O)c1ccc(NC(=O)C(=O)N2CCC3(CC2)OCCN3S(=O)(=O)c2cccs2)cc1 101%
COc1ccc(/N=C/c2c(Nc3ccc(Cl)cc3)nc3c(C)cccn3c2=O)cc1 89.1%
O=C(Nc1ccccc1Cl)c1cccn2c(-c3ccc(F)cc3)nnc12 83.9%
Cc1nc2ccc(S(=O)(=O)Nc3cccc(-c4nc5cccnc5s4)c3C)cc2s1 91.6%
Cc1cccc(CSc2ncnc3[nH]cnc23)c1 76.9%
Cn1c2ccc(F)cc2c2nnc(SCC(=O)Nc3cccc(O)c3)nc21 60%
CS(=O)(=O)c1ccc2nc(Nc3nc4cc5c(cc4s3)OCCO5)sc2c1 91.1%
CN1CCN(c2nc(Nc3cccc(F)c3)c3cnn(-c4ccccc4)c3n2)CC1 134%
COc1ccc(-c2n[nH]c(SC(CC(=O)NCc3cccnc3)c3ccc(OC)cc3)n2)cc1 (centres undefined) 111%
O=C(NCCc1c[nH]c2ccccc12)C(=O)NCC1OCCN1C(=O)c1ccc2c(c1)OCO2 (centres undefined) 112%
COc1ccnc(Cn2nc3c4ccccc4nc(C(C)(C)C)n3c2=O)c1OC 45.1%
Cc1nn(-c2nc(-c3ccc(F)cc3)cs2)c(O)c1CCC(=O)N1CCOCC1 114%
CCc1nn2c(=O)cc(CSc3nnc(-c4cccc(C)c4)o3)nc2s1 74.9%
O=C(NC(c1ccccc1)c1cccnc1)c1cc2c([nH]c1=O)CCCCC2 (centres undefined) 116%
CC(=O)c1cccc(N/C=C(\C#N)c2nc(-c3cccc4ccccc34)cs2)c1 107%
COC(=O)c1c(NC(=O)CC2Nc3ccccc3NC2=O)sc2c1CCC(C)C2 (centres undefined) 118%
O=C(CN1C(=O)c2ccccc2S1(=O)=O)NC1=NN(c2ccccc2)C(=O)C1 137%
CCc1nn(-c2ccccc2)c2nc(-c3ccccc3)nc(SCC(=O)NC(C)(C)C)c12 106%
Cc1cc(NCCN2CCCCCC2)n2c(nc3ccccc32)c1C#N 58.7%
COC(=O)Cn1/c(=N/C(=O)c2ccc(C#N)cc2)sc2cc(F)ccc21 104%

No new results follow: entries from further up.
Intracellular bacterial bioluminescence, inactive:
Cc1cc(NCCN2CCCCCC2)n2c(nc3ccccc32)c1C#N 58.7%
COC(=O)Cn1/c(=N/C(=O)c2ccc(C#N)cc2)sc2cc(F)ccc21 104%
